System: hepatic glucose production
Test: pancreatic-hyperinsulinemic clamp (insulin 3 mU/kg·min) in SHAM and HV rats
Format: in vivo, Sprague-Dawley rats
Conditions: for FFA: Clamp, systemic insulin 3 mU/Kg·min; for ^3H-Glucose Plasma SA / ^3H-UDPglucose Liver SA / ^14C-PEP / ^14C-UDP glucose: systemic insulin (3 mU)
Method: Panel A is a schematic representation of the pancreatic-hyperinsulinemic clamp procedure. At t=120 an infusion of labeled glucose was initiated and maintained for the remaining 4 hours of the study and a pancreatic hyperinsulinemic clamp was initiated at t=240 min and lasted for 2 hours. […] The figure is a longitudinal view of a rat brain, with olfactory bulb at the anterior end on the left and the caudal hindbrain on the right.
In vivo studies. For the studies in rats, the metabolic experiments were performed ˜3 weeks after stereotaxic surgery following complete recovery from the operation (FIG. 5). All solutions were diluted with artificial cerebral spinal fluid (aCSF). […] Euglycemic-hyperinsulinemic clamps in conscious, unrestrained, catheterized mice were performed for 90 min as previously described (Obici et al., 2003; Liu et al., 1998).
Selective hepatic branch vagotomy. One week before the clamp procedure a subgroup of rats underwent selective hepatic vagotomy (HV) or sham operation (SHAM). Anatomical nerve transactions was verified in each rat at sacrifice by microscopic observation of the absence of vagal nerve fibers in between the two silk sutures that had been placed along the trunk at the time of transection (la Fleur et al., 2003).
Hepatic glucose fluxes. Rate of hepatic glucose fluxes was determined as described. Barzilai et al., 1997).

insulin
FFA (HV): 0.5 ± 0.1 mM
^3H-Glucose Plasma SA (HV): 28.6 ± 1.8 dpm/nmol
^3H-UDPglucose Liver SA (HV): 6.3 ± 0.7 dpm/nmol
^14C-PEP (HV): 5.1 ± 1.1 dpm/nmol
^14C-UDP glucose (HV): 5.3 ± 0.7 dpm/nmol
^3H-Glucose Plasma SA (SHAM): 29.9 ± 2.5 dpm/nmol
^3H-UDPglucose Liver SA (SHAM): 6.3 ± 0.9 dpm/nmol
^14C-PEP (SHAM): 7.2 ± 1.4 dpm/nmol
^14C-UDP glucose (SHAM): 3.8 ± 0.6 dpm/nmol
FFA (Sham): 0.6 ± 0.2 mM
